In assay [1] the target is T1, BmrA (Bacillus multidrug resistance ATP), 6-histidine N-terminal tag (Bacillus subtilis) (UniProt O06967).
T1 sequence: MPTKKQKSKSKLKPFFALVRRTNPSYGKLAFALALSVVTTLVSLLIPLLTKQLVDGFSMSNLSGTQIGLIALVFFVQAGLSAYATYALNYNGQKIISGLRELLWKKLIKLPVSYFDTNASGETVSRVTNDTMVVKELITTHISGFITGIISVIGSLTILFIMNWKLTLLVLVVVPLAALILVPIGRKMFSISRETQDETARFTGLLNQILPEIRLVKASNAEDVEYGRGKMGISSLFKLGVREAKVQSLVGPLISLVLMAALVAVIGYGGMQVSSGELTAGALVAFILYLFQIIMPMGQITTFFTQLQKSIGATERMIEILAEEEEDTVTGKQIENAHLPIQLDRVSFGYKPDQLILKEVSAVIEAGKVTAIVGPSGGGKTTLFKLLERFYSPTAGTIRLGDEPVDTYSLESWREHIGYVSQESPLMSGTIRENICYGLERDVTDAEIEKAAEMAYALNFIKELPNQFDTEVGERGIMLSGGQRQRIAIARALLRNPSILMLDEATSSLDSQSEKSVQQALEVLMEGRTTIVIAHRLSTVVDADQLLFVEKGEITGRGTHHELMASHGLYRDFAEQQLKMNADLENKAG
As to the kind of experiment: affinity purification with mass spectrometry; His6-BmrA solubilised from E. coli membranes with 1% FC12, Q-Sepharose and Ni2+ chelating column; overloaded SDS-PAGE bands identified by mass spectrometry.

Protein sequences, listed by entry. Tags and fused reporters are not part of them. Residues count along the entry.
UniProt P02931, residues 23-362: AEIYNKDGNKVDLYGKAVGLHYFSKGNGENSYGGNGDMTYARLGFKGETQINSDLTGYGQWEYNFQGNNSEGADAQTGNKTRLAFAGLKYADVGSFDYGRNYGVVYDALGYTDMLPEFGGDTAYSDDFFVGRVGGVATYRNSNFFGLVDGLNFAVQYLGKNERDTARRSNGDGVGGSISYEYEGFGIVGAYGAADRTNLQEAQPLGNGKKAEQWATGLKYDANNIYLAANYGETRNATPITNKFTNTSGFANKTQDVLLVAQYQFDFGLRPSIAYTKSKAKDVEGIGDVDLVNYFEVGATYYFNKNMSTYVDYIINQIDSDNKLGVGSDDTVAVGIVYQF

For assay [2], the target named is T1, BmrA (Bacillus multidrug resistance ATP), 6-histidine N-terminal tag (Bacillus subtilis). Briefly: affinity purification with mass spectrometry.
Assay [3] shares this target. Briefly: affinity purification with mass spectrometry; His6-BmrA solubilised from E. coli membranes with 1% FC12, Q-Sepharose and Ni2+ chelating column; overloaded SDS-PAGE bands identified by mass spectrometry. This is another data set of the same source.
For assay [4] the target is unchanged. As to the kind of experiment: affinity purification with mass spectrometry; His6-BmrA solubilised from E. coli membranes with 1% LDAO, Ni2+-NTA resin and SEC, 4°C; overloaded SDS-PAGE bands identified by mass spectrometry.

Results are given in words; binding and its absence hold for the method and conditions named. Binding seen in cells or lysates may run through a third protein. These calls come from enrichment with a bait or labelling near it, and not all partners need be listed. No binding means not detected with the bait. Tags and fused reporters may be left off the sequences shown.

With “Outer membrane protein F (OmpF) (from UniProt P02931 23-362)”, in assay [1], the binding result is “no binding”.

B1: Cytochrome ubiquinol oxidase sub. 1 (protein, UniProt P0ABJ0 1-663)
chain: MFGKLSLDAVPFHEPIVMVTIAGIILGGLALVGLITYFGKWTYLWKEWLTSVDHKRLGIMYIIVAIVMLLRGFADAIMMRSQQALASAGEAGFLPPHHYDQIFTAHGVIMIFFVAMPFVIGLMNLVVPLQIGARDVAFPFLNNLSFWFTVVGVILVNVSLGVGEFAQTGWLAYPPLSGIEYSPGVGVDYWIWSLQLSGIGTTLTGINFFVTILKMRAPGMTMFKMPVFTWASLCANVLIIASFPILTVTVALLTLDRYLGTHFFTNDMGGNMMMYINLIWAWGHPEVYILILPVFGVFSEIAATFSRKRLFGYTSLVWATVCITVLSFIVWLHHFFTMGAGANVNAFFGITTMIIAIPTGVKIFNWLFTMYQGRIVFHSAMLWTIGFIVTFSVGGMTGVLLAVPGADFVLHNSLFLIAHFHNVIIGGVVFGCFAGMTYWWPKAFGFKLNETWGKRAFWFWIIGFFVAFMPLYALGFMGMTRRLSQQIDPQFHTMLMIAASGAVLIALGILCLVIQMYVSIRDRDQNRDLTGDPWGGRTLEWATSSPPPFYNFAVVPHVHERDAFWEMKEKGEAYKKPDHYEEIHMPKNSGAGIVIAAFSTIFGFAMIWHIWWLAIVGFAGMIITWIVKSFDEDVDYYVPVAEIEKLENQHFDEITKAGLKNGN
Turning to B1, the binding result in assay [2] is recorded as “no binding”.

B2: Ferrienterobactin receptor (fepA) (protein, UniProt P05825 23-746)
chain: QEPTDTPVSHDDTIVVTAAEQNLQAPGVSTITADEIRKNPVARDVSKIIRTMPGVNLTGNSTSGQRGNNRQIDIRGMGPENTLILIDGKPVSSRNSVRQGWRGERDTRGDTSWVPPEMIERIEVLRGPAAARYGNGAAGGVVNIITKKGSGEWHGSWDAYFNAPEHKEEGATKRTNFSLTGPLGDEFSFRLYGNLDKTQADAWDINQGHQSARAGTYATTLPAGREGVINKDINGVVRWDFAPLQSLELEAGYSRQGNLYAGDTQNTNSDSYTRSKYGDETNRLYRQNYALTWNGGWDNGVTTSNWVQYEHTRNSRIPEGLAGGTEGKFNEKATQDFVDIDLDDVMLHSEVNLPIDFLVNQTLTLGTEWNQQRMKDLSSNTQALTGTNTGGAIDGVSTTDRSPYSKAEIFSLFAENNMELTDSTIVTPGLRFDHHSIVGNNWSPALNISQGLGDDFTLKMGIARAYKAPSLYQTNPNYILYSKGQGCYASAGGCYLQGNDDLKAETSINKEIGLEFKRDGWLAGVTWFRNDYRNKIEAGYVAVGQNAVGTDLYQWDNVPKAVVEGLEGSLNVPVSETVMWTNNITYMLKSENKTTGDRLSIIPEYTLNSTLSWQAREDLSMQTTFTWYGKQQPKKYNYKGQPAVGPETKEISPYSIVGLSATWDVTKNVSLTGGVDNLFDKRLWRAGNAQTTGDLAGANYIAGAGAYTYNEPGRTWYMSVNTHF
Regarding B2, in assay [3], the binding entry is on record as “no binding”.

B3: Cytochrome ubiquinol oxidase sub. 2 (protein, UniProt P0ABJ2 25-315)
chain: CNSALLDPKGQIGLEQRSLILTAFGLMLIVVIPAILMAVGFAWKYRASNKDAKYSPNWSHSNKVEAVVWTVPILIIIFLAVLTWKTTHALEPSKPLAHDEKPITIEVVSMDWKWFFIYPEQGIATVNEIAFPANTPVYFKVTSNSVMNSFFIPRLGSQIYAMAGMQTRLHLIANEPGTYDGISASYSGPGFSGMKFKAIATPDRAAFDQWVAKAKQSPNTMSDMAAFEKLAAPSEYNQVEYFSNVKPDLFADVINKFMAHGKSMDMTQPEGEHSAHEGMEGMDMSHAESAH
On to B3, for which the binding result in assay [4] is given as “no binding”.

The values are drawn from article PMC4269414, “Stubborn Contaminants: Influence of Detergents on the Purity of the Multidrug ABC Transporter BmrA” (PLoS ONE, 2014).
